Results taken from paper PMC8412352.

Chains of the proteins cited; added tags and fusions are not shown. Lines headed by an entry give the natural chain unless they say otherwise; changes in a name come on top.
UniProt Q7KRX3: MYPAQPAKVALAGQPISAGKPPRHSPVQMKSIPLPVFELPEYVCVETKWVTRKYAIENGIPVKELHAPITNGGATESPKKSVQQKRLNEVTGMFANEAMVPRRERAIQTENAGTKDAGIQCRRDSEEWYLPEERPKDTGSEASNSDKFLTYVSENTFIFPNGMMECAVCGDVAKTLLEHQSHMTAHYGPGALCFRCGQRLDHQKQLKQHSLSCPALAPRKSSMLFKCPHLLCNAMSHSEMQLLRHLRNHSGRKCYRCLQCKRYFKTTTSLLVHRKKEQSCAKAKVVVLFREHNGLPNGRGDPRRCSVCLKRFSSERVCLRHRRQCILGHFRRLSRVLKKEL
UniProt P05205: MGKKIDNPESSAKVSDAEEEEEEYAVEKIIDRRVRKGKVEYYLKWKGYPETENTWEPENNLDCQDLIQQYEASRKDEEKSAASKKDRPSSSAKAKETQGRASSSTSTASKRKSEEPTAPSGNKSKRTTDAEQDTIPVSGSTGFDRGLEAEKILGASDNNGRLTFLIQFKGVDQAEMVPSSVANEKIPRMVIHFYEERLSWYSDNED
UniProt Q9VKI2: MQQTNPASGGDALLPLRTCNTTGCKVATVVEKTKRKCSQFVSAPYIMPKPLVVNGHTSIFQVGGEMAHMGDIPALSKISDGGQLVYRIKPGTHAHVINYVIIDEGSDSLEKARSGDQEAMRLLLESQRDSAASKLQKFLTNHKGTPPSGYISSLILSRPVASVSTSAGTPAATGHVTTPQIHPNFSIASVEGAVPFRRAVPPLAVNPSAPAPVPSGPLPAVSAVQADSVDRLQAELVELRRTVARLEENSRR
UniProt Q9VAC4: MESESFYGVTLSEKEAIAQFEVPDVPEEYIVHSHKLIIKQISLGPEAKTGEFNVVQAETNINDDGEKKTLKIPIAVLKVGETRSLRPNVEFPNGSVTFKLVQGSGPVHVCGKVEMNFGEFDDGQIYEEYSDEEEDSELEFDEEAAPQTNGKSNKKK

B1: nucleoplasmin (NLP) (protein, UniProt Q27415 1-152)
chain: MAEESFYGVTLTAESDSVTWDVDEDYARGQKLVIKQILLGAEAKENEFNVVEVNTPKDSVQIPIAVLKAGETRAVNPDVEFYESKVTFKLIKGSGPVYIHGHNIKDDVEVVDMEEDDEEDDVAEDEEDEHPKKRAKIENAADGKNAKNNKKK
B2: SU(HW) (protein, UniProt P08970 1-941)
chain: MSASKEGKEKKGKLLGVENISPPKDKRPATRMKLLNDVGAGEDSEASTTTTTSRTPSNKQEKRGSVAGSRIKILNEEILGTPKTEKRGATKSTAPAASTVKILNEKKTPSATVTAVETTKIKTSPSKRKKMEHYVLQAVKSENTKADTTVTVVTEEDDTIDFILADDEEVVPGRIENNNGQEIVVTEDDEDLGEDGDEDGEDSSGKGNSSQTKIKEIVEHVCGKCYKTFRRVQSLKKHLEFCRYDSGYHLRKADMLKNLEKIEKDAVVMEKKDICFCCSESYDTFHLGHINCPDCPKSFKTQTSYERHIFITHSEFSDFPCSICNANLRSEALLALHEEQHKSRGKPYACKICGKDFTRSYHLKRHQKYSSCSSNETDTMSCKVCDRVFYRLDNLRSHLKQHLGTQVVKKPEYMCHTCKNCFYSLSTLNIHIRTHTGEKPFDCDLCDKKFSALVALKKHRRYHTGEKPYSCTVCNQAFAVKEVLNRHMKRHTGERPHKCDECGKSFIQATQLRTHSKTHIRPFPCEQCDEKFKTEKQLERHVKTHSRTKRPVFSCAECKRNFRTPALLKEHMDEGKHSPKQQRSSMRSAVKIMERTDCAICDKNFDSSDTLRRHIRTVHECDPDDIFGVEPHPSKRAKKDIESEEVVPVALNTSAGSLISSQTDGNGVVVREFLVDEGDGAAQTITLENETYTILPLDGAIEGEQLTDEAGVKPEAKKEEAQVSPVVKKEQRKSLAASLAAAIADNLEESCSEDDFSGEILTEEDIKLKENVGKLIDMLVDPPILKKYGWPNAPEETVLCKVIENCGHDLTKGGENYAELDYGSRMREYCKLLFTVVIHNDSIKSLLNNFPIDDVIEYVLGDEDQDEGGLDKDNESHSGDEEAVSVTGETKTNEIREKPEKKEVSAKSEKKEIVGKAVDKDNSEEVVRENKKKPVGEQEKA
B3: SU(VAR)3-7 (protein, UniProt P20193 1-1250)
chain: MDRDSSMQAKNLDAQCNPDLKMASANSETLASATHELKIMDVEGGALVDPDHIEEVETSMVIVVDDDDGDVAMVVEEDKHPMRDDPCIEDIMDDEHAPLVAELQSALNNPDDKQASEDPLLEDQEREPDAMSTKTEPSSDAESSHSYHDPMGLLERIEIHDPGDSQDDDDEDDESSNGGGVDGGMRRKMPRAQRWLLWMKRWPWILHEDSDGTLAFCLYCNISINVNNRSRHIQQHNVSLSHQERECNYLAFKKSEEETRGAISDNEIKHEFGTKSYVAAMKQKRISETEAFNNFNWLRWLRWHPWLERSMPTGTIGTCRICSVRMNVEFVYLRKRHETTKGHMEALRNLDSDKRSRKRKRSKSNSVTNSGGDEAEREKESEPEVGPEDAQDTPVVMMNGDVDSGDDPGKWCALIPDTNPQQCRCTLCNCTMAITSFLRHCKTRAHCHMLSTPAEKGSSDIRGIWAVFADMHPWLIADPEDPSIGYCSVCRKRFMYGNSEIKRKNHEKSEKHTLALASAKAGIEVGSADGRGGDNMDEEEAAASDQAQSSQTDDSEDNDDDNWSEIQKLGKGFAHKSSSEPRKATVRAGVRFYPWLCYSKDRKTQICKFCRVRFHNEAAKARHELSARHVKLVKQFKMRQAKLHQGTNTQTKHNAQDDEESQEQDEEYGEEEEDAEEDSQSNFDLGTVQARKTARADNKLFVKPIPATMKGKVMVWKGRFPWLSYKKNEQRGNYAWCKLCEVSLYLPSSKWASKHQRTSRHIRLRIDRKRNGGNPLKTSNKNSGEISTVVATASALASAEARQKAAMAELQAKYDWLDPDANDENHCHCRVCDSRLPIKVFYLRQHDASRKHVENKERQRANAAAAANAPSVSPTSTVDAERQESGMDKESENDMSVRSDGSTAEPLAKRSRRSMEVRRIIRALRDSMGKRQEERSQMDMARDMICSSFDIVTRLRTLERESVAHNESMAQAPPSVTVSPIKPPEPRHVMDLFFDSISPTMKSLPPDLAAEGKSKIMQLVCSLELRAMQRNATTPTPATVSASSKWPSSTTVTPVKTPPAPISAPLASVDADLHSSVVTTPHEYNNGQNNNNDKETVPKEPVTGASSAQVTINGSAKDLPENIRRILTSNQTQVTNRLETDSVRCVPLDKLTTQSRTNVNGRLSQGGTSEAPSTPQADLSNGNTLAMIRQIRVNNNNSSKITVTNTPQMQQPQQAQASITSSTPIMRGGPSSNGCQITTFRTMVNHNRRP

Tests used:
[1] = target: T1, nucleoplasmin (NLP) (D. melanogaster (endogenous in SL2)) (UniProt Q27415); test: affinity purification with mass spectrometry; IPs from benzonase-treated SL2 nuclear extracts against mock IPs: HMR (rat anti-HMR 2C10 and 12F1; anti-FLAG M2 for endogenously FLAG-tagged HMR), LHR (12F4), NLP (rabbit anti-NLP), HP1a (C1A9), FLAG-BOH1 and FLAG-BOH2 (anti-FLAG M2); IP buffer 25 mM Hepes pH 7.6, 150 mM NaCl, 12.5 mM MgCl2, 4°C; on-bead digestion
T1 sequence: B1 chain

[2] = target: FLAG-HA-BOH1 (D. melanogaster) (UniProt Q7KRX3); test: as above
[3] = target: heterochromatin protein 1a (HP1a) (D. melanogaster (endogenous in SL2)) (UniProt P05205); test: as above
[4] = target: FLAG-HA-BOH2 (D. melanogaster) (UniProt Q9VKI2); test: as above
[5] = target: ectopically expressed C-terminally truncated FLAG-HA-HMR (HMR^dC-tg) (D. melanogaster); test: affinity purification with mass spectrometry; anti-FLAG M2 IPs of ectopically expressed FLAG-HA-HMR alleles (HMR^wt-tg, HMR^2-tg, HMR^dC-tg) co-expressed with Myc-LHR in SL2 cells (250 uM CuSO4), nuclear extracts, endogenous HMR/LHR present; enrichment normalized to the HMR bait; IP buffer 25 mM Hepes pH 7.6, 150 mM NaCl, 4°C
[6] = target: ectopically expressed wild type FLAG-HA-HMR (HMR^wt-tg) (D. melanogaster); test: as above
[7] = target: Hybrid male rescue protein (HMR), endogenous (D. melanogaster (endogenous in SL2)); test: affinity purification with mass spectrometry; IPs from benzonase-treated SL2 nuclear extracts against mock IPs: HMR (rat anti-HMR 2C10 and 12F1; anti-FLAG M2 for endogenously FLAG-tagged HMR), LHR (12F4), NLP (rabbit anti-NLP), HP1a (C1A9), FLAG-BOH1 and FLAG-BOH2 (anti-FLAG M2); IP buffer 25 mM Hepes pH 7.6, 150 mM NaCl, 12.5 mM MgCl2, 4°C; on-bead digestion
[8] = target: Lethal hybrid rescue protein (LHR), endogenous (D. melanogaster (endogenous in SL2)); test: as above
[9] = target: endogenously FLAG-tagged HMR (HMR^endo) (D. melanogaster (endogenous in SL2)); test: as above

Row | Molecule | binding [1] | binding [2] | binding [3] | binding [4] | binding [6] | also measured
1 | Hybrid male rescue protein (HMR), endogenous (D. melanogaster (endogenous in SL2)) | binds |  |  |  |  | 
2 | Buddy Of HMR 2 (BOH2), endogenous (from UniProt Q9VKI2) | binds | binds | binds |  |  | 
3 | nucleophosmin (NPH) (from UniProt Q9VAC4) | binds | binds | binds | binds |  | 
4 | Lethal hybrid rescue protein (LHR), endogenous (D. melanogaster (endogenous in SL2)) | binds |  |  |  |  | 
5 | Buddy Of HMR 1 (BOH1), endogenous (from UniProt Q7KRX3) | binds |  | binds | binds |  | 
6 | B1 |  | binds | binds | binds | binds | binding [5]: binds; binding [7]: binds; binding [8]: binds; binding [9]: binds
7 | B2 |  |  |  |  | binds | 
8 | B3 |  |  |  |  | binds | binding [5]: binds

No constants are given. Whether binding was seen depends on the method and setting. In cells and extracts the contact can be indirect. These calls come from enrichment with a bait or labelling near it, and not all partners need be listed.
